# Experimental data as given in the supplement of paper PMC7411640.
# Counter-ions that a name gives are not always drawn. The list shows a part of the results. Single values are uncertain here, since repeats match poorly.
# Tested on: MDA-MB-468
# Experiment: phospho-S6 immunofluorescence (DAPI-normalised), per-plate z-score; higher = higher phospho-S6 signal (less pathway suppression)
# Conditions: compound 1 µM; co-treatment: vehicle; 24 h
# Procedure: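 GPCR-targeted compound library (MedChemExpress HY-L006) tested on MDA-MB-468 PTEN-null TNBC cells in 384-well plates at 0.1, 1 or 10 uM, combined with vehicle, GDC0941 450 nM or lapatinib 1 uM, for 24 h. Phospho-S6 (S240/244) immunofluorescence normalised to DAPI and expressed as a per-plate z-score; values are the mean of biological triplicates.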
row,SMILES,phospho-S6 immunofluorescence (z-score)
1,O=C(NC(Cc1cc(=O)[nH]c2ccccc12)C(=O)O)c1ccc(Cl)cc1 (stereo not given) [Rebamipide],-2.45
2,Cc1nc(C(=O)N2CCC[C@H]2Cc2nnc(-c3ccccc3)o2)c(-c2ccccc2F)s1,-1.49
3,Cc1cc(C(C)(C)C)cc(C)c1CC1=NCCN1 [Xylometazoline (hydrochloride)],-0.12
4,C[C@]12CCC(=O)C=C1CC[C@@H]1[C@@H]2[C@@H](O)C[C@@]2(C)[C@H]1CC[C@]2(O)C(=O)CO [Hydrocortisone],0.69
5,CN(C)CCOC(c1ccccc1)c1ccccc1.Cn1c(=O)c2[nH]c(Cl)nc2n(C)c1=O [Dimenhydrinate],-2.22
6,CN(C)CCC=C1c2ccccc2C=Cc2ccccc21 [Cyclobenzaprine (hydrochloride)],-1.09
7,O=C(O)CC1CCC2(CC1)CCN(c1cc(OC(F)(F)F)ccc1Cl)CC2,-1.05
8,O=C1CC2(CCCC2)CC(=O)N1CCCCN1CCN(c2ncccn2)CC1 [Buspirone (hydrochloride)],2.14
9,COc1ccccc1Oc1c(NS(=O)(=O)c2ccc(C)cn2)nc(-c2ccncc2)nc1OC [Avosentan],-1.26
10,Cc1ccc(-c2n[nH]c3c2C(c2cccc(O)c2)N(c2ccc(C(=O)O)cc2)C3=O)cc1 (stereo not given),0.45
11,CCOc1nc2cccc(C(=O)O)c2n1Cc1ccc(-c2ccccc2-c2nnn[nH]2)cc1 [Candesartan],0.76
12,NC(N)=Nc1nc(CSCC/C(N)=N/S(N)(=O)=O)cs1 [Famotidine],-0.14
13,CC(C)(Cc1ccc2ccccc2c1)NC[C@@H](O)COc1cccc(Cl)c1C#N [NPS-2143 (hydrochloride)],-12.7
14,Cc1cc2c(s1)Nc1ccccc1N=C2N1CCN(C)CC1 [Olanzapine],0.39
15,CCOC(=O)N1CCC(NCCNC(=O)c2ccccc2C)CC1,0.83
16,CN1[C@@H]2CC[C@H]1C[C@@H](OC(=O)c1c[nH]c3ccccc13)C2 [Tropisetron (Hydrochloride)],-0.23
17,CCc1cc2c(cc1CC)CC(NC[C@H](O)c1ccc(O)c3[nH]c(=O)ccc13)C2 [Indacaterol (maleate)],1.64
18,O=c1[nH]c2ccccc2n1CCN1CCN(c2cccc(C(F)(F)F)c2)CC1 [Flibanserin],0.29
19,C[N+](C)(C)CCOC(N)=O [Carbamoylcholine (chloride)],0.62
20,CC(C)(C)NCC(O)c1cc(O)cc(O)c1 (stereo not given) [Terbutaline (sulfate)],0.87

# Looked up above:
# O=C(NC(Cc1cc(=O)[nH]c2ccccc12)C(=O)O)c1ccc(Cl)cc1 (stereo not given) [Rebamipide] | phospho-S6 immunofluorescence (z-score): -2.45
# CC(C)(C)NCC(O)c1cc(O)cc(O)c1 (stereo not given) [Terbutaline (sulfate)] | phospho-S6 immunofluorescence (z-score): 0.87
# CCOC(=O)N1CCC(NCCNC(=O)c2ccccc2C)CC1 | phospho-S6 immunofluorescence (z-score): 0.83

# Additional compounds:

row,SMILES,phospho-S6 immunofluorescence (z-score)
1,COc1nc(C)cnc1NS(=O)(=O)c1cccnc1-c1ccc(-c2nnco2)cc1 [Zibotentan],-1.99
2,O=C(CN1C(=O)C2(CCCC2)NC[C@H]1c1cc(F)cc(F)c1)Nc1ccc2c(c1)C[C@@]1(C2)C(=O)Nc2ncccc21 [MK-3207 (Hydrochloride)],-0.62
3,CCN(CC)CCCC(C)Nc1nc(C)cc(Nc2ccc3nc(C)cc(N)c3c2)n1 (stereo not given),0.38
4,CCC(=O)NC[C@@H]1C[C@H]1c1cccc2c1CCO2 [Tasimelteon],0.38
5,CCOc1nc2cccc(C(=O)OC(C)OC(=O)OC3CCCCC3)c2n1Cc1ccc(-c2ccccc2-c2nn[nH]n2)cc1 (stereo not given) [Candesartan (Cilexetil)],-0.19
6,Clc1ccc(Cn2c(CN3CCCC3)nc3ccccc32)cc1 [Clemizole (hydrochloride)],-2.55
7,CN(C)CCN1C(=O)c2cccc3cc(NC(N)=O)cc(c23)C1=O,0.29
8,CC(C)C[C@H](NC(=O)[C@@H](COC(C)(C)C)NC(=O)[C@H](Cc1ccc(O)cc1)NC(=O)[C@H](CO)NC(=O)[C@H](Cc1c[nH]c2ccccc12)NC(=O)[C@H](Cc1cnc[nH]1)NC(=O)[C@@H]1CCC(=O)N1)C(=O)N[C@@H](CCCNC(=N)N)C(=O)N1CCC[C@H]1C(=O)NNC(N)=O [Goserelin (acetate)],-2.7
9,CN1Cc2c(N)cccc2C(c2ccccc2)C1 (stereo not given) [Nomifensine (maleate)],-0.01
10,O=c1cc(CN2CCOCC2)occ1OCCCCCSc1ccnc2cc(C(F)(F)F)ccc12,-1.69
11,COc1cccc(CCc2ccccc2OCC(CN(C)C)OC(=O)CCC(=O)O)c1 (stereo not given) [Sarpogrelate (hydrochloride)],-2.33
12,COc1cccc(-c2c(C)n(Cc3c(F)cccc3C(F)(F)F)c(=O)n(C[C@H](NCCCC(=O)O)c3ccccc3)c2=O)c1F [Elagolix],0.25
13,CN1CCN2c3c(cccc31)[C@@H]1CN(CCCC(=O)c3ccc(F)cc3)CC[C@@H]12 [lumateperone (Tosylate)],-6.43
14,CN(C)CCCN1c2ccccc2Sc2ccc(C(F)(F)F)cc21 [Triflupromazine (hydrochloride)],0.76
15,COc1cc2nc(N3CCN(C(=O)C4COc5ccccc5O4)CC3)nc(N)c2cc1OC (stereo not given) [Doxazosin (mesylate)],1.2
16,CSc1ccc2c(c1)N(CCC1CCCCN1C)c1ccccc1S2 (stereo not given) [Thioridazine (hydrochloride)],-0.18
17,O=C(O)COc1cccc(CN(Cc2ccc(-n3cccn3)cc2)S(=O)(=O)c2cccnc2)c1 [Taprenepag],-0.28
18,Cc1nn(C)c2c1C(c1ccc(C(F)(F)F)cc1)C(C#N)=C(N)O2 (stereo not given),0.13
19,OCCOCCN1CCN(C2=Nc3ccccc3Sc3ccccc32)CC1 [Quetiapine],0.05
20,N=C(N)NCCC[C@H](NC(=O)[C@H](Cc1ccccc1)NC(=O)[C@@H]1CCCN1C(=O)[C@H](CO)NC(=O)[C@H](Cc1ccccc1)NC(=O)CNC(=O)[C@@H]1CCCN1C(=O)[C@@H]1CCCN1C(=O)[C@@H](N)CCCNC(=N)N)C(=O)O [Bradykinin],-0.42
